Results: patent publication US20160130351A1 (NOVIMMUNE S A, published 2016)
Results are given in words; binding and its absence hold for the method and conditions named. Some entries that bind do so weakly or less than the wild type.

Chains of the proteins cited; added tags and fusions are not shown. Lines headed by an entry give the natural chain unless they say otherwise; changes in a name come on top.
UniProt P79341: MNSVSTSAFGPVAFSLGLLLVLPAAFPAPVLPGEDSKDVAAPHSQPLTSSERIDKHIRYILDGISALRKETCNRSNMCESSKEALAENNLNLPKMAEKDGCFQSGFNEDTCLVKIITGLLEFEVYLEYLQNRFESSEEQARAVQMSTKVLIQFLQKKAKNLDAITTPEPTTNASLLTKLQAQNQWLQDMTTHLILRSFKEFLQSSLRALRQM

Target: native cynomolgus IL-6Rc (cynomolgus IL-6 + scyIL-6R) (cynomolgus monkey) (UniProt P79341+A0A2K5WN54)
Experiment: heading of Example 9 (STAT3 Luciferase reporter assay with cynomolgus IL-6 + scyIL-6R)

binding: binds
B1: NI-1201 wild type (NI-1201-WT) antibody (antibody, V domains shown)
VH: QVQLVQSGAEVKKPGSSVKVSCKASGGTFSSYAISWVRQAPGQGLEWMGGIIPLFDTTKYAQQFQGRVTITADESTSTAYMELSSLRSEDTAVFYCARDRDILTDYYPMGGMDVWGQGTTVTVSS
VL: AIQLTQSPSSLSASVGDRVTITCRASQGISSVLAWYQQKPGKAPKLLIYDASSLESGVPSRFSGSGSGTDFTLTISSLQPEDFATYYCQQSNSYPLTFGGGTKVEIKR
notes: Fully human monoclonal IgG (captured by anti-human IgG Fc in Biacore); also called 39B9 VL1
